# Test results taken from PubChem BioAssay AID1671190 (National Center for Advancing Translational Sciences (NCATS), 2021).
# Sequences of proteins named here, by UniProt entry; tags and fusion partners are left off.
# UniProt P18054, whole entry, looked up: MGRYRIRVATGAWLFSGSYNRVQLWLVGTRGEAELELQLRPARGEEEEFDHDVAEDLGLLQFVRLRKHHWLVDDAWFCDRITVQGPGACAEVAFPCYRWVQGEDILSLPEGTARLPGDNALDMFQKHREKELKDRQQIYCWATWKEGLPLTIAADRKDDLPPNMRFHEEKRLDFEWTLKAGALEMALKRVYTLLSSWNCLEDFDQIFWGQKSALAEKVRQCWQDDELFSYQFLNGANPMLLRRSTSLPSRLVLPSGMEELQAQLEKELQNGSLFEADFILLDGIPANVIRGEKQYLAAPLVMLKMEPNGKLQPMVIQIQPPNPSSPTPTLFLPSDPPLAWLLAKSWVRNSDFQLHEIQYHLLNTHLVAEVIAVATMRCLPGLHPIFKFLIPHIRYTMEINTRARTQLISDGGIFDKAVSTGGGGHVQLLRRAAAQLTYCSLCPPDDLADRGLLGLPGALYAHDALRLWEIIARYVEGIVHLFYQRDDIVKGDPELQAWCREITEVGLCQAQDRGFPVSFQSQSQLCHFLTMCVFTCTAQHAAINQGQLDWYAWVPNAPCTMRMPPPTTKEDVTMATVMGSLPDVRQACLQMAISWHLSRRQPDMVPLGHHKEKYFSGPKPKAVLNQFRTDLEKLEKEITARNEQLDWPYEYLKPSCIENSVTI
# Several values for one entry are separate records, joined by “and”; a condition that tells them apart may be missing. Identical values can stand only once. In all, about 580,000 compounds went through this assay and about 6,100 (1.1%) were called active. The inconclusive results got no clear call from the source; some entries with a clear call stand among them for comparison. Calls come from the whole dose curve; as a rule, active = well fitted inhibition curve with a large enough effect; inconclusive = small, poorly fitted or top-dose-only effect, or another doubt; inactive = no such curve, though single readings can be large or run the other way. A potency beside an inconclusive call is a rough fit, not a confirmed value.
# Biological target: Polyunsaturated fatty acid lipoxygenase ALOX12 (Homo sapiens) (UniProt P18054)
# Experiment: Primary qHTS assay for inhibitors of human arachidonate 12S-lipoxygenase (ALOX12): Round 2
# Conditions: purified 12hLO, xylenol orange hydroperoxide absorbance; activity change, negative = inhibition: at 108 µM (top of the series) unless noted
# Method in brief: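 Purified human 12hLO (150 nM final) in 25 mM Hepes, 0.01% Triton X-100, pH 7.0 was preincubated 15 min at room temperature with compound. Then 40 uM arachidonic acid was added, 30 min. Hydroperoxide was read by Fe-XO absorbance ratio 573/405 nm.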
# % is set by controls: 0 for no effect and ±100 for the full control effect; potency is the fitted concentration of half-maximal effect.
Compound,"activity change, negative = inhibition",Potency
CN(C)C(=O)c1ccc(NC(=O)c2cc(-n3cnnc3)ccc2Cl)cc1,inactive: 17.5%,–
CCC1=NN(C(=O)c2cccc(Br)c2)C(O)(c2ccc(Br)cc2)C1 (centres undefined),–,"inconclusive: 39.8 µM [inhibitor, partial curve, poor fit]"
Cc1ccccc1CN1C(=O)C(C)Sc2ccc(-c3ccco3)cc21 (centres undefined),–,active: 15.8 µM
CNC(=O)c1ccccc1OCc1coc(-c2cccc(F)c2)n1,inactive: -3.22%,–
Cc1ccc(-c2ncc(C(=O)Nc3ccccc3Br)c(-c3ccncc3)n2)cc1,–,"inconclusive: 17.8 µM [inhibitor, partial curve]"
O=C(c1ccco1)N1CCc2c(nc(-c3ccc(F)cc3)[nH]c2=O)C1,–,"inconclusive: 20 µM [inhibitor, full curve]"
CC(=NNC(=S)N1CC2CCC(CC2)C1)c1ccncn1,–,"inconclusive: 50.1 µM [inhibitor, partial curve, poor fit]"
COc1cccc2cc(-c3cc(=O)oc4ccc(OS(C)(=O)=O)cc34)oc12,–,"inconclusive: 100 µM [inhibitor, single point]"
CCCN1C(=O)SC(CC(=O)Nc2ccccc2)C1=O (centres undefined),inactive: 0%,–
CCCN(CCC)S(=O)(=O)c1ccc(C(=O)NCc2n[nH]c(=S)n2-c2ccc(Cl)c(Cl)c2)cc1,–,"inconclusive: 39.8 µM [inhibitor, partial curve]"
Cc1ccc(NC(=O)CC2Sc3ccc(C(F)(F)F)cc3NC2=O)cc1Cl (centres undefined),–,"inconclusive: 100 µM [inhibitor, single point]"
CN(C)CCOCCOc1ccc(Cl)cc1C(C)(C)C,–,"inconclusive: 0.631 µM [inhibitor, full curve]"
CC(C)CCNC(=O)Nc1ccc2c(c1)N(C)C(=O)CS2,inactive: -7.18%,–
CC(=O)Nc1ccc2c(c1)Cc1ccc(Cl)cc1-2,–,"inconclusive: 39.8 µM [inhibitor, partial curve, poor fit]"
c1cc2c3c(c1)c1c(n3CCNC2)CCCC1,–,"inconclusive: 31.6 µM [inhibitor, partial curve, poor fit]"
CC(C)n1nnnc1SCC(=O)N1CCN(C(=O)c2ccco2)CC1,inactive: 6.69%,–
O=C(O)c1ccc(/C=N/N2CCN(C3c4ccccc4-c4ccccc43)CC2)cc1,–,"inconclusive: 44.7 µM [inhibitor, partial curve, poor fit]"
Cc1ccc2oc(-c3ccc(Cl)cc3)nc2c1,inactive: -1.11%,–
CC(C)N(Cc1ccc(C(N)=O)cc1)C1CC1,inactive: 1.18%,–
COc1ccc(Cn2cc(C(=O)c3ccccc3)c(=O)c3cc(OC)ccc32)cc1,–,"inconclusive: 50.1 µM [inhibitor, partial curve, poor fit]"
CN(Cc1ccccc1)C(=C(Cl)Cl)/C(=C1/NCCN1C)[N+](=O)[O-],inactive: -17.8%,–
Cc1ccc(S(=O)(=O)c2cnc(SCC(=O)Nc3ccccc3C(F)(F)F)[nH]c2=O)cc1C,–,"inconclusive: 15.8 µM [inhibitor, full curve, poor fit]"

Compound,"activity change, negative = inhibition",Potency
Cc1ccc(Cl)cc1NC(=O)c1cc2c(=O)n3cccc(C)c3nc2n1C,inactive: -2.35%,–
OC(COC(c1ccc(F)cc1)c1ccc(F)cc1)CN1CCCC(C(F)(F)F)C1 (centres undefined),–,"inconclusive: 1.12 µM [inhibitor, full curve]"
O=C1NC2(CCCCC2)C(=O)N1/N=C/c1ccccc1Br,–,"inconclusive: 44.7 µM [inhibitor, partial curve, poor fit]"
C/C(=N\NC(=S)NC1CCCCC1)c1ccccc1,–,active: 25.1 µM
Cn1c(=O)c2c(ncn2CCCOc2ccc(C#N)cc2)n(C)c1=O,–,"inconclusive: 79.4 µM [inhibitor, single point]"
Cc1cccc(N(C(=O)CNC(=O)c2ccco2)C(C(=O)NC2CCCCC2)c2cccnc2)c1 (centres undefined),inactive: 5.8%,–
O=C(C1Cc2ccccc2CN1C(=O)c1ccccc1)N1CCN(c2ccccc2)CC1 (centres undefined),inactive: -15.8%,–
CCC(CC)C(=O)NC[C@@H]1C=C(C)[C@H](Cc2nc3ccc(C)cc3[nH]2)C[C@H]1C(C)C,–,"inconclusive: 56.2 µM [inhibitor, single point]"
COc1ccccc1N1CCN(S(=O)(=O)c2c(C)sc3ncn(CC(=O)Nc4ccc(C(C)C)cc4)c(=O)c23)CC1,–,"inconclusive: 112 µM [inhibitor, partial curve, poor fit]"
O=C1CO[C@H]2CCN(Cc3ccccc3Cl)CC[C@@H]2N1c1ccccc1,–,"inconclusive: 100 µM [inhibitor, partial curve]"
CCOc1cccc(/C=C/c2ccc3cccc(O)c3n2)c1O,–,"inactive and inconclusive: 39.8 µM [inhibitor, partial curve, poor fit]"
Cc1ccc(C(=O)N[C@H](C(=O)OCc2nnc(-c3ccccc3)o2)C(C)C)cc1,inactive: 27.1%,–
Cc1ccc(OCC(=O)Nc2ccc3c(c2)OC(F)(F)O3)c([N+](=O)[O-])n1,inactive: -28.6%,–
C/C(=N\O)C(C)(C)Nc1ccccc1F,–,"inconclusive: 100 µM [inhibitor, single point]"
NS(=O)(=O)c1ccc(N/N=C/c2ccsc2)c([N+](=O)[O-])c1,inactive: -7.67%,–
O=C(NC(=S)Nc1ccccc1N1CCCC1)c1ccccc1Br,–,"inconclusive: 56.2 µM [inhibitor, partial curve, poor fit]"
CC(Oc1ccc(Cl)cc1Cl)C(=O)NC1=NN(c2ccccc2)C(=O)C1 (centres undefined),–,"inconclusive: 1 µM [inhibitor, full curve, poor fit]"
Cc1ccc(N/N=C/C=C/c2ccccc2)cc1Cl,–,active: 2.82 µM
COc1ccc(CN(CC(=O)NCC2CCCO2)C(=O)CNS(=O)(=O)c2ccccc2)cc1 (centres undefined),–,"inconclusive: 200 µM [inhibitor, partial curve, poor fit]"
Cc1ccc(CN2CC(N3CCN(Cc4cccc(C)c4)CC3)CS2(=O)=O)cc1 (centres undefined),–,"inconclusive: 70.8 µM [inhibitor, partial curve, poor fit]"
COc1ccc(OC)c(N2C(=O)CCC2(C)C(=O)NC2CCCC2)c1 (centres undefined),–,"inconclusive: 126 µM [inhibitor, single point]"
COC(=O)c1c(NC(=O)CCc2ccc(C)o2)sc(C)c1C,inactive: -27.9%,–
